Source: PubChem BioAssay AID912 (NCATS, 2007).

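Uptake of anthrax lethal toxin into cultured cells, read by FRET (460/530 nm ratio) and reported from the 460 nm channel; the cell line is not named here.
Each compound was tested as a concentration series from about 0.0005 to 40 µM.
The number is the fitted AC50 of the 460 nm signal alone; lower values mean a more potent effect. A falling signal goes with compounds filed as inhibitors or cytotoxic, a rising one with activators or fluorescent compounds (inferred from the filed classes).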

Values are in nM.
Common to all entries: measured here: 460 nm channel.
Part of the compounds only, not a random draw; the main read-out is not listed here.
A potency from a partial, single-point or poor curve is only a rough figure.
The first word of each remark tells which way the curve ran; it can be opposite to the aim of the assay.

compound	AC50 (nM)	curve as filed
COc1cc2c(c(OC)c1OC)-c1ccc(OC)c(=O)cc1[C@H](NC(C)=O)CC2	39.81	falling, full curve
COC(=O)c1cc(Cc2ccc(N)c(C(=O)OC)c2)ccc1N	12589	falling, partial curve
CCOc1ccc(-c2nc(C#N)c(N3CCCCCC3)o2)cc1	3162	falling, partial curve
COc1ccccc1-c1cc(C(F)(F)F)nc(S(=O)(=O)CCCC(=O)NC(C)C)n1	1000	falling, full curve
CCCOc1ccc(C2C(C(=O)OC)=CN(CCOC)C=C2C(=O)OC)cc1	10000	rising, partial curve
CCN(CC)C(=O)c1c[nH]c2ccc(S(=O)(=O)Nc3cc(C)cc(C)c3)cc2c1=O	15848	rising, single point
O=C(Nc1cccc(F)c1)N1CCCC2(CCN(C(=O)Oc3ccccc3)CC2)C1	1000	falling, full curve
O=C(CSc1nc2c([nH]c3ccccc32)c(=O)n1-c1cccc(Cl)c1)N1CCOCC1	3981	falling, partial curve, poor fit
COc1ccc(OCc2nn3c(-c4ccco4)nnc3s2)cc1	12589	falling, single point
Cc1cccc(N2CC(C)Cn3c2nc2c3c(=O)n(CC(=O)OCc3ccccc3)c(=O)n2C)c1 (centres unmarked)	1259	rising, partial curve
COc1cccc(-c2ccc3ncnc(NC4CCNCC4)c3c2)c1	25118	falling, single point
COc1ccc(C2C(C#N)=C(C)NC3=C2C(=O)CC(C)(C)C3)c(OC)c1 (centres unmarked)	10000	rising, partial curve
COc1ccc(CNc2ncncc2-c2ccccc2Cl)c(OC)c1	31622	falling, single point
Cc1nnc(SCc2ccc(C(=O)c3ccc(Cl)cc3)o2)n1-c1ccccc1	6310	rising, partial curve
COC(=O)[C@H](NC(=O)c1cc(-c2ccccc2)nc2ccccc12)c1ccccc1	7943	falling, full curve
CCOC(=O)N1CCC(Nc2c(Nc3ccc(C)c(C)c3)c(=O)c2=O)CC1	10000	rising, single point
COC(=O)C1(C)C=C2C(=C(c3ccccc3)C(=O)C2C)CN1 (centres unmarked)	31622	falling, single point
Clc1ccc2c(NCCNC3CCCCC3)ccnc2c1	3981	falling, single point
Cc1c(CC(C)(C)C(=O)O)n(Cc2ccc(Cl)cc2)c2ccc(F)cc12	501.2	falling, full curve
COc1ccc(OC)c(NS(=O)(=O)c2ccc(NC(=O)C3COc4ccccc4O3)cc2)c1 (centres unmarked)	12589	falling, partial curve
CCOC(=O)NC[C@H](Cc1ccc(OCCc2nc(-c3ccccc3)oc2C)cc1)N/C(C)=C\C(=O)c1ccc(C(F)(F)F)cc1	31622	falling, single point
Cc1noc(NS(=O)(=O)c2cccc3c(N(C)C)cccc23)c1C	12589	falling, single point
CC[C@]1(C2=NCCN2)Cc2ccccc2O1	31622	rising, single point
Cc1cc(C)c2nc(NC3=NCN(CCN4CCOCC4)CN3)nc(C)c2c1	5012	falling, single point
Nc1c(C(=O)NCCN2CCOCC2)c2nc3ccccc3nc2n1-c1cccc(F)c1	7943	rising, partial curve
COc1ccc(-c2nn(C)c(=O)c3ccccc23)cc1CNC(=O)c1ccco1	31622	rising, single point
COc1ccc2cnn(Cc3ccccc3)c(=O)c2c1OC	31622	falling, single point
N#Cc1nc(-c2ccco2)oc1NCCc1ccccc1	316.2	rising, full curve, poor fit
COC(=O)c1cc(COc2ccc3ccc(=O)oc3c2)c(C)o1	5012	rising, partial curve
C#CCSc1nnc(-c2cccc3ccccc23)o1	12589	falling, partial curve, poor fit
Cc1noc(NS(=O)(=O)c2ccc(NC(=O)c3ccc(Br)o3)cc2)c1C	3162	rising, partial curve, poor fit
CCOc1ccc2nc(NCCNS(=O)(=O)c3ccccc3)c(C#N)cc2c1	12589	rising, partial curve